First the molecules themselves.
B1: GANAB (protein, UniProt Q14697 29-944)
chain: ITLAVDRSNFKTCEESSFCKRQRSIRPGLSPYRALLDSLQLGPDSLTVHLIHEVTKVLLVLELQGLQKNMTRFRIDELEPRRPRYRVPDVLVADPPIARLSVSGRDENSVELTMAEGPYKIILTARPFRLDLLEDRSLLLSVNARGLLEFEHQRAPRVSQGSKDPAEGDGAQPEETPRDGDKPEETQGKAEKDEPGAWEETFKTHSDSKPYGPMSVGLDFSLPGMEHVYGIPEHADNLRLKVTEGGEPYRLYNLDVFQYELYNPMALYGSVPVLLAHNPHRDLGIFWLNAAETWVDISSNTAGKTLFGKMMDYLQGSGETPQTDVRWMSETGIIDVFLLLGPSISDVFRQYASLTGTQALPPLFSLGYHQSRWNYRDEADVLEVDQGFDDHNLPCDVIWLDIEHADGKRYFTWDPSRFPQPRTMLERLASKRRKLVAIVDPHIKVDSGYRVHEELRNLGLYVKTRDGSDYEGWCWPGSAGYPDFTNPTMRAWWANMFSYDNYEGSAPNLFVWNDMNEPSVFNGPEVTMLKDAQHYGGWEHRDVHNIYGLYVHMATADGLRQRSGGMERPFVLARAFFAGSQRFGAVWTGDNTAEWDHLKISIPMCLSLGLVGLSFCGADVGGFFKNPEPELLVRWYQMGAYQPFFRAHAHLDTGRREPWLLPSQHNDIIRDALGQRYSLLPFWYTLLYQAHREGIPVMRPLWVQYPQDVTTFNIDDQYLLGDALLVHPVSDSGAHGVQVYLPGQGEVWYDIQSYQKHHGPQTLYLPVTLSSIPVFQRGGTIVPRWMRVRRSSECMKDDPITLFVALSPQGTAQGELFLDDGHTFNYQTRQEFLLRRFSFSGNTLVSSSADPEGHFETPIWIERVVIIGAGKPAAVVLQTKGSPESRLSFQHDPETSVLVLRKPGINVASDWSIHLR
B2: MAGT1 (protein, UniProt Q9H0U3 30-335)
chain: QRKKEMVLSEKVSQLMEWTNKRPVIRMNGDKFRRLVKAPPRNYSVIVMFTALQLHRQCVVCKQADEEFQILANSWRYSSAFTNRIFFAMVDFDEGSDVFQMLNMNSAPTFINFPAKGKPKRGDTYELQVRGFSAEQIARWIADRTDVNIRVIRPPNYAGPLMLGLLLAVIGGLVYLRRSNMEFLFNKTGWAFAALCFVLAMTSGQMWNHIRGPPYAHKNPHTGHVNYIHGSSQAQFVAETHIVLLFNGGVTLGMVLLCEAATSDMDIGKRKIMCVAGIGLVVLFFSWMLSIFRSKYHGYPYSFLMS
B3: STT3A (protein, UniProt P46977 1-705)
chain: MTKFGFLRLSYEKQDTLLKLLILSMAAVLSFSTRLFAVLRFESVIHEFDPYFNYRTTRFLAEEGFYKFHNWFDDRAWYPLGRIIGGTIYPGLMITSAAIYHVLHFFHITIDIRNVCVFLAPLFSSFTTIVTYHLTKELKDAGAGLLAAAMIAVVPGYISRSVAGSYDNEGIAIFCMLLTYYMWIKAVKTGSICWAAKCALAYFYMVSSWGGYVFLINLIPLHVLVLMLTGRFSHRIYVAYCTVYCLGTILSMQISFVGFQPVLSSEHMAAFGVFGLCQIHAFVDYLRSKLNPQQFEVLFRSVISLVGFVLLTVGALLMLTGKISPWTGRFYSLLDPSYAKNNIPIIASVSEHQPTTWSSYYFDLQLLVFMFPVGLYYCFSNLSDARIFIIMYGVTSMYFSAVMVRLMLVLAPVMCILSGIGVSQVLSTYMKNLDISRPDKKSKKQQDSTYPIKNEVASGMILVMAFFLITYTFHSTWVTSEAYSSPSIVLSARGGDGSRIIFDDFREAYYWLRHNTPEDAKVMSWWDYGYQITAMANRTILVDNNTWNNTHISRVGQAMASTEEKAYEIMRELDVSYVLVIFGGLTGYSSDDINKFLWMVRIGGSTDTGKHIKENDYYTPTGEFRVDREGSPVLLNCLMYKMCYYRFGQVYTEAKRPPGFDRVRNAEIGNKDFELDVLEEAYTTEHWLVRIYKVKDLDNRGLSRT
B4: PDIA4 (protein, UniProt P13667 21-645)
chain: VAGAEGPDEDSSNRENAIEDEEEEEEEDDDEEEDDLEVKEENGVLVLNDANFDNFVADKDTVLLEFYAPWCGHCKQFAPEYEKIANILKDKDPPIPVAKIDATSASVLASRFDVSGYPTIKILKKGQAVDYEGSRTQEEIVAKVREVSQPDWTPPPEVTLVLTKENFDEVVNDADIILVEFYAPWCGHCKKLAPEYEKAAKELSKRSPPIPLAKVDATAETDLAKRFDVSGYPTLKIFRKGRPYDYNGPREKYGIVDYMIEQSGPPSKEILTLKQVQEFLKDGDDVIIIGVFKGESDPAYQQYQDAANNLREDYKFHHTFSTEIAKFLKVSQGQLVVMQPEKFQSKYEPRSHMMDVQGSTQDSAIKDFVLKYALPLVGHRKVSNDAKRYTRRPLVVVYYSVDFSFDYRAATQFWRSKVLEVAKDFPEYTFAIADEEDYAGEVKDLGLSESGEDVNAAILDESGKKFAMEPEEFDSDTLREFVTAFKKGKLKPVIKSQPVPKNNKGPVKVVVGKTFDSIVMDPKKDVLIEFYAPWCGHCKQLEPVYNSLAKKYKGQKGLVIAKMDATANDVPSDRYKVEGFPTIYFAPSGDKKNPVKFEGGDRDLEHLSKFIEEHATKLSRTKEEL
B5: RPN1 (protein, UniProt P04843 24-607)
chain: ASSEAPPLINEDVKRTVDLSSHLAKVTAEVVLAHLGGGSTSRATSFLLALEPELEARLAHLGVQVKGEDEEENNLEVRETKIKGKSGRFFTVKLPVALDPGAKISVIVETVYTHVLHPYPTQITQSEKQFVVFEGNHYFYSPYPTKTQTMRVKLASRNVESYTKLGNPTRSEDLLDYGPFRDVPAYSQDTFKVHYENNSPFLTITSMTRVIEVSHWGNIAVEENVDLKHTGAVLKGPFSRYDYQRQPDSGISSIRSFKTILPAAAQDVYYRDEIGNVSTSHLLILDDSVEMEIRPRFPLFGGWKTHYIVGYNLPSYEYLYNLGDQYALKMRFVDHVFDEQVIDSLTVKIILPEGAKNIEIDSPYEISRAPDELHYTYLDTFGRPVIVAYKKNLVEQHIQDIVVHYTFNKVLMLQEPLLVVAAFYILFFTVIIYVRLDFSITKDPAAEARMKVACITEQVLTLVNKRIGLYRHFDETVNRYKQSRDISTLNSGKKSLETEHKALTSEIALLQSRLKTEGSDLCDRVSEMQKLDAQVKELVLKSAVEAERLVAGKLKKDTYIENEKLISGKRQELVTKIDHILDAL
B6: Hsp47 (protein, UniProt P50454 19-418)
chain: AEVKKPAAAAAPGTAEKLSPKAATLAERSAGLAFSLYQAMAKDQAVENILVSPVVVASSLGLVSLGGKATTASQAKAVLSAEQLRDEEVHAGLGELLRSLSNSTARNVTWKLGSRLYGPSSVSFADDFVRSSKQHYNCEHSKINFRDKRSALQSINEWAAQTTDGKLPEVTKDVERTDGALLVNAMFFKPHWDEKFHHKMVDNRGFMVTRSYTVGVMMMHRTGLYNYYDDEKEKLQIVEMPLAHKLSSLIILMPHHVEPLERLEKLLTKEQLKIWMGKMQKKAVAISLPKGVVEVTHDLQKHLAGLGLTEAIDKNKADLSRMSGKKDLYLASVFHATAFELDTDGNPFDQDIYGREELRSPKLFYADHPFIFLVRDTQSGSLLFIGRLVRPKGDKMRDEL
B7: STT3B (protein, UniProt Q8TCJ2 1-826)
chain: MAEPSAPESKHKSSLNSSPWSGLMALGNSRHGHHGPGAQCAHKAAGGAAPPKPAPAGLSGGLSQPAGWQSLLSFTILFLAWLAGFSSRLFAVIRFESIIHEFDPWFNYRSTHHLASHGFYEFLNWFDERAWYPLGRIVGGTVYPGLMITAGLIHWILNTLNITVHIRDVCVFLAPTFSGLTSISTFLLTRELWNQGAGLLAACFIAIVPGYISRSVAGSFDNEGIAIFALQFTYYLWVKSVKTGSVFWTMCCCLSYFYMVSAWGGYVFIINLIPLHVFVLLLMQRYSKRVYIAYSTFYIVGLILSMQIPFVGFQPIRTSEHMAAAGVFALLQAYAFLQYLRDRLTKQEFQTLFFLGVSLAAGAVFLSVIYLTYTGYIAPWSGRFYSLWDTGYAKIHIPIIASVSEHQPTTWVSFFFDLHILVCTFPAGLWFCIKNINDERVFVALYAISAVYFAGVMVRLMLTLTPVVCMLSAIAFSNVFEHYLGDDMKRENPPVEDSSDEDDKRNQGNLYDKAGKVRKHATEQEKTEEGLGPNIKSIVTMLMLMLLMMFAVHCTWVTSNAYSSPSVVLASYNHDGTRNILDDFREAYFWLRQNTDEHARVMSWWDYGYQIAGMANRTTLVDNNTWNNSHIALVGKAMSSNETAAYKIMRTLDVDYVLVIFGGVIGYSGDDINKFLWMVRIAEGEHPKDIRESDYFTPQGEFRVDKAGSPTLLNCLMYKMSYYRFGEMQLDFRTPPGFDRTRNAEIGNKDIKFKHLEEAFTSEHWLVRIYKVKAPDNRETLDHKPRVTNIFPKQKYLSKKTTKRKRGYIKNKLVFKKGKKISKKTV
B8: SPCS3 (protein, UniProt P61009 1-180)
chain: MNTVLSRANSLFAFSLSVMAALTFGCFITTAFKDRSVPVRLHVSRIMLKNVEDFTGPRERSDLGFITFDITADLENIFDWNVKQLFLYLSAEYSTKNNALNQVVLWDKIVLRGDNPKLLLKDMKTKYFFFDDGNGLKGNRNVTLTLSWNVVPNAGILPLVTGSGHVSVPFPDTYEITKSY
B9: DDOST (protein, UniProt P39656 43-456)
chain: SGPRTLVLLDNLNVRETHSLFFRSLKDRGFELTFKTADDPSLSLIKYGEFLYDNLIIFSPSVEDFGGNINVETISAFIDGGGSVLVAASSDIGDPLRELGSECGIEFDEEKTAVIDHHNYDISDLGQHTLIVADTENLLKAPTIVGKSSLNPILFRGVGMVADPDNPLVLDILTGSSTSYSFFPDKPITQYPHAVGKNTLLIAGLQARNNARVIFSGSLDFFSDSFFNSAVQKAAPGSQRYSQTGNYELAVALSRWVFKEEGVLRVGPVSHHRVGETAPPNAYTVTDLVEYSIVIQQLSNGKWVPFDGDDIQLEFVRIDPFVRTFLKKKGGKYSVQFKLPDVYGVFQFKVDYNRLGYTHLYSSTQVSVRPLQHTQYERFIPSAYPYYASAFSMMLGLFIFSIVFLHMKEKEKSD

Chains of the proteins cited; added tags and fusions are not shown. Residues count along the entry.
UniProt P27824, residues 21-592: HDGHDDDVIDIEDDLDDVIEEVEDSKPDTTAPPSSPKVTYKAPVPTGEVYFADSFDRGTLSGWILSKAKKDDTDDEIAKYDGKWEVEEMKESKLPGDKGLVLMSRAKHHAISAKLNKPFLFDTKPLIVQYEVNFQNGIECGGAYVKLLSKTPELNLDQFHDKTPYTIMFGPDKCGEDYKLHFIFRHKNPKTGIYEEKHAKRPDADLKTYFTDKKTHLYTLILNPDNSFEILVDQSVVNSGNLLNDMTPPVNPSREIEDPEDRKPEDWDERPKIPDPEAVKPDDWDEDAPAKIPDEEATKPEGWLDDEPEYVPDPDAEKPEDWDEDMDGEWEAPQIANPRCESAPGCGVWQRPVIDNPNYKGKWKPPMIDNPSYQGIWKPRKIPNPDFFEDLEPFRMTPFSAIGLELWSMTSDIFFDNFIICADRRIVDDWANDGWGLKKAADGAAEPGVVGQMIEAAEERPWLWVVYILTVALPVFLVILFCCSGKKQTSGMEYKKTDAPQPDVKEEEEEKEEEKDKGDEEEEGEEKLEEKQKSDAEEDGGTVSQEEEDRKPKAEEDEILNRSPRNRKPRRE
UniProt P11021, residues 19-654: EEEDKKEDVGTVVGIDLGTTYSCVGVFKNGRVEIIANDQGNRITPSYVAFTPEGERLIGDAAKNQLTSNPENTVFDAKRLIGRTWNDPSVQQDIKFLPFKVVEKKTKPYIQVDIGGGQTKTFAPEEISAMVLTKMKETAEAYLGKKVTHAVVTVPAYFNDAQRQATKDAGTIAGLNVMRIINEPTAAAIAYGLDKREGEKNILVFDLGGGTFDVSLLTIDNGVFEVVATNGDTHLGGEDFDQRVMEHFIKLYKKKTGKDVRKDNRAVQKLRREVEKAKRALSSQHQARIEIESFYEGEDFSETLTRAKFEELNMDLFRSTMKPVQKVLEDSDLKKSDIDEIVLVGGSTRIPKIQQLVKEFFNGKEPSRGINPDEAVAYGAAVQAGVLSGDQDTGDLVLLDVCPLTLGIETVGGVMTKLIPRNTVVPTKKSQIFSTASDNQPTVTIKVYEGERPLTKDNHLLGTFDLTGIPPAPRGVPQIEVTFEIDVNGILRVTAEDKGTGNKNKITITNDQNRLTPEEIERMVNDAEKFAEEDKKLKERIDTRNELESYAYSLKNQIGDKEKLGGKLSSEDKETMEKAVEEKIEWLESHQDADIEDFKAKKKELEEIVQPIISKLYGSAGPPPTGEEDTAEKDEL
UniProt Q9UBS4, residues 23-358: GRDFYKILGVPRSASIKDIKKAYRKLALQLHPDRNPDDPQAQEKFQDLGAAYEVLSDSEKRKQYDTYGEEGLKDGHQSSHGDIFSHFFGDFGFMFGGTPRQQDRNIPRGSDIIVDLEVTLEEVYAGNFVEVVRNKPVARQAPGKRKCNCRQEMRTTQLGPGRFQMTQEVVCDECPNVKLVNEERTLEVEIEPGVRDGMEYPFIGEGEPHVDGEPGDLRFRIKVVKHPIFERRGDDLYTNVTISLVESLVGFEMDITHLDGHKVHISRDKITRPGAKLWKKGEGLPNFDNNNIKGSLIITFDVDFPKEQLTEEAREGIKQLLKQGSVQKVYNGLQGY
UniProt Q15005: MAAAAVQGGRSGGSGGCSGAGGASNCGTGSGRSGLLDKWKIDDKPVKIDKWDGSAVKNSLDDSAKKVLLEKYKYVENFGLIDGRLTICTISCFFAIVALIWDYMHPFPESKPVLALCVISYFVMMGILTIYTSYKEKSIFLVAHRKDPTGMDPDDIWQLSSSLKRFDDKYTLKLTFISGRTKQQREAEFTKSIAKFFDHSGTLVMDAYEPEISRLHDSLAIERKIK
UniProt Q969V3, residues 43-563: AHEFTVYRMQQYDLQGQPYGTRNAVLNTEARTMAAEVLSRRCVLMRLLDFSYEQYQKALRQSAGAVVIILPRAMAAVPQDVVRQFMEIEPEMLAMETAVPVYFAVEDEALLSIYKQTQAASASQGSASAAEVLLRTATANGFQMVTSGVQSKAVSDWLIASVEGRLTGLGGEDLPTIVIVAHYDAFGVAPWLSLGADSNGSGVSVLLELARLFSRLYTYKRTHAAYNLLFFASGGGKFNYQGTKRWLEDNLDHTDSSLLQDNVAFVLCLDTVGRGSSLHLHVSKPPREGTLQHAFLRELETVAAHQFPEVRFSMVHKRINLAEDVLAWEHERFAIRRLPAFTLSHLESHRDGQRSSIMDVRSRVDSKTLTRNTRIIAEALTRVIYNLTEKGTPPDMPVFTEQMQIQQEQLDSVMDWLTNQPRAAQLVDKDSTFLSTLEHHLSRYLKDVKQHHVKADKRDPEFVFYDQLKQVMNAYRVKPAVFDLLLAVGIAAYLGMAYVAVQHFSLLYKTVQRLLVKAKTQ
UniProt Q9UGP8: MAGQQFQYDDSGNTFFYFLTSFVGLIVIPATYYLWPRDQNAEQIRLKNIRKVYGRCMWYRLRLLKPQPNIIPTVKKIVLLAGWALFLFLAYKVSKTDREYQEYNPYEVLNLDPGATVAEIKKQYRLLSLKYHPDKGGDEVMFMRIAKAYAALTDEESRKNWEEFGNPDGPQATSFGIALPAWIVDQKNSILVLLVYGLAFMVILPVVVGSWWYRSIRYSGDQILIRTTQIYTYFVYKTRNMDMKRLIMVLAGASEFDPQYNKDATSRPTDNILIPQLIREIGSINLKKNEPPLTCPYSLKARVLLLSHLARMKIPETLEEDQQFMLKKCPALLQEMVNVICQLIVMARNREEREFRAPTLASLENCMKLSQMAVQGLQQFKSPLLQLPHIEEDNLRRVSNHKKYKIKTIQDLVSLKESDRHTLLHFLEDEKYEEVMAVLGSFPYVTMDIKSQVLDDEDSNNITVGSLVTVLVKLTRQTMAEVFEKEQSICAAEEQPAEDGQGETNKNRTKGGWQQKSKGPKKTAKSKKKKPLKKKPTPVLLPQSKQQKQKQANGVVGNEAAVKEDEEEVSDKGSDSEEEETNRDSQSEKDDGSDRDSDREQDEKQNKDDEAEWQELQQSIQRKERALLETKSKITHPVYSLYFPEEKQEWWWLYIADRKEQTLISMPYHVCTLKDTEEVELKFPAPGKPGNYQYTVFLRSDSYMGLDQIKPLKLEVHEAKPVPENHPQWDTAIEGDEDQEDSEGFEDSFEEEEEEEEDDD
UniProt P23284, residues 34-216: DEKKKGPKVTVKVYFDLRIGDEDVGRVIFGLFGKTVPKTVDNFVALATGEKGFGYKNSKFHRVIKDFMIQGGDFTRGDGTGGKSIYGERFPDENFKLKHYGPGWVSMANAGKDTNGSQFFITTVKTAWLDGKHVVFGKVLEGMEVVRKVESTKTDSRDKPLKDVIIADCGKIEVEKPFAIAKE
UniProt P14625, residues 22-803: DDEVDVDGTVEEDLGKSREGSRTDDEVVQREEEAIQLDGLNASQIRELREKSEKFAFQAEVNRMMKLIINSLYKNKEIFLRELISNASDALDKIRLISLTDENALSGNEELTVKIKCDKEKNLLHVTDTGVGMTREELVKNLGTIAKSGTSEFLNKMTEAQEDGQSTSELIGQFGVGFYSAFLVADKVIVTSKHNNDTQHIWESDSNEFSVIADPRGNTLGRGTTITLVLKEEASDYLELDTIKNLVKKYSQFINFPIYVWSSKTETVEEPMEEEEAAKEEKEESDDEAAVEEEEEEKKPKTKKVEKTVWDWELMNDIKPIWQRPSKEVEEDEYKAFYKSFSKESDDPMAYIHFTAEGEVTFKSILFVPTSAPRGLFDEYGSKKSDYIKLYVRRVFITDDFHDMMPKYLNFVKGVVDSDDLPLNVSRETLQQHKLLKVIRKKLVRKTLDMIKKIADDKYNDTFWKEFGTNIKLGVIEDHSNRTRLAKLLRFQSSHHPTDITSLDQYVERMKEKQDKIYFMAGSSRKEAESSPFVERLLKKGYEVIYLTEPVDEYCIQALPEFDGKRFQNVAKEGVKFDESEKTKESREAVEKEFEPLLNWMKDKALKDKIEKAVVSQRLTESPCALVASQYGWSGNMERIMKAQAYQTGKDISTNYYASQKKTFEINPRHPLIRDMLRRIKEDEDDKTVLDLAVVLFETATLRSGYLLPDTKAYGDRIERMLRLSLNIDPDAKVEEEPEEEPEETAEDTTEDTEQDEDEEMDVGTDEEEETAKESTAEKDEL

These are yes or no findings as the source states them, for the method shown. In cells and extracts the contact can be indirect. A yes stands for co-enrichment or nearness to the bait. Other partners may have been found. Sequences can lack the tags named with a protein.

The target of this experiment is T1, Hspa13^Flag (human (cDNA from HEK293T)) (UniProt P48723).
T1 sequence: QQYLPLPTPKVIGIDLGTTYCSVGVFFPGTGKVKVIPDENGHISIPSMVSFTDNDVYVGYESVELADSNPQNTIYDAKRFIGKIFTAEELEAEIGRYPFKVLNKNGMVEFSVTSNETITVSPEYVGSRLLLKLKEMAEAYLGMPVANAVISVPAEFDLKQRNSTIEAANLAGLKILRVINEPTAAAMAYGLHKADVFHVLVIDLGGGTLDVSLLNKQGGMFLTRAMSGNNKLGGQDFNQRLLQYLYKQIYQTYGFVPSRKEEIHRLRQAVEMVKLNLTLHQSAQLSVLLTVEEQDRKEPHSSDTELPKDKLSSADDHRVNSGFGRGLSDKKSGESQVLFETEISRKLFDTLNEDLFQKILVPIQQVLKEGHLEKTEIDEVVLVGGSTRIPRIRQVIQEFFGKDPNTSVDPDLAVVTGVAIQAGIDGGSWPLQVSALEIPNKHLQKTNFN
The experiment can be described thus: affinity purification with mass spectrometry.
On to calnexin (from UniProt P27824 21-592), for which the binding result is given as “binds”.

For BiP (from UniProt P11021 19-654), the binding entry is reported as “binds”.

Turning to “ERdj3/DNAJB11 (from UniProt Q9UBS4 23-358)”, the binding result is recorded as “binds”.

As for SPCS2 (from UniProt Q15005 1-226), the binding entry is reported as “binds”. Consider NCLN (from UniProt Q969V3 43-563), for which the binding entry is listed as “binds”. In the case of Erp29 (from UniProt P30040 33-261) it was “binds”. In the case of Sec63 (from UniProt Q9UGP8 1-760) it was “binds”. In the case of PPIB (from UniProt P23284 34-216) it was “binds”.

With “Grp94/HSPB90B1 (from UniProt P14625 22-803)”, the binding result is listed as “binds”. The entry for B1 is “binds”. Consider B2, for which the binding result is on record as “binds”. In the case of B3 it was “binds”; in that of B4, “binds”; in that of B5, “binds”. The entry for B6 is “binds”; for B7 it is “binds”; for B8 it is “binds”.

For B9, the binding entry was “binds”.

The values above are taken from paper doi:10.1101/2022.06.27.497790.
